The results in this text go back to paper PMC7819943, “Rice protein-binding microarrays: a tool to detect cis-acting elements near promoter regions in rice”.

The chains behind the UniProt entries cited, without tags or fusion partners.
UniProt Q0JBA9, entry or part of it: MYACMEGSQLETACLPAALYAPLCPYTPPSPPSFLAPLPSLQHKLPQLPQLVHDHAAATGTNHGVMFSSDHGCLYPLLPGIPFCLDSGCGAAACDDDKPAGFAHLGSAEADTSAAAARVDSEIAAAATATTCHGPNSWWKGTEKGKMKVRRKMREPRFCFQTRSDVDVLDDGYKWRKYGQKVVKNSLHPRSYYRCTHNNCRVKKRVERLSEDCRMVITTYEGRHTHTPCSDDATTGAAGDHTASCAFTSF

This is one part of the list.

The experiment has as its target OsWRKY34 (Oryza sativa, UniProt Q0JBA9 1-250). Put plainly: protein-binding microarray (RPBM); PBS, 2% BSA, 51.3 ng/ul salmon testes DNA, 50 uM zinc acetate, 200 nM TF, 25 C, 1 h; high values mean tight binding. The following applies: protein: recombinant; tags: N-terminal polyhistidine and DsRed monomer fusion (pET32a); label: CyDye5-dUTP incorporated in the synthesized complementary strand; 3' TTTTT single-stranded linker to array surface; dsDNA, one strand shown. In a few lines:
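Per-feature fluorescence intensity (arbitrary units), read on an Axon 4000B scanner, is the binding signal. Transcription factors carrying an N-terminal polyhistidine tag and DsRed fusion were expressed in E. coli BL21-CodonPlus and purified on Ni–NTA. A custom Agilent array, made double-stranded by primer extension with Cy5-dUTP and blocked with 2% BSA, was incubated with 200 nM protein in PBS, 2% BSA, salmon testes DNA and 50 µM zinc acetate at 25 °C for 1 h and then washed.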
Consider “GTTGCTTACTAGTATACCTTACTCTCTTTCTGAACTTTTCCGGAGTCACCTAGTGCAG”, for which the binding signal was 9060 fluorescence intensity (a.u.).
For the sequence “CACCCAAAAGCGCACGTTCCTAAATCACGCGCCAACTGCTCGGAGTCACCTAGTGCAG”, the binding signal was 8370 fluorescence intensity (a.u.).
On to “TACAACACCGCCTCCGTAACCGTTCTCTCTAACTATTTCACGGAGTCACCTAGTGCAG”, for which the binding signal is 12100 fluorescence intensity (a.u.).
For “TAGACTTCACCCGTTGCAACGCACGTCCATTTTTTTCTAGCGGAGTCACCTAGTGCAG”, the binding signal was 8730 fluorescence intensity (a.u.).
Next, “GCTTTGTGTTCCCGATGTGCTTATGATCACGTATTGTCGACGGAGTCACCTAGTGCAG”: 9920 fluorescence intensity (a.u.).
For “TGTGCTGGGTGGATTTGGGATTCGATGTGGCTGGAGTTGACGGAGTCACCTAGTGCAG”, the binding signal was 12400 fluorescence intensity (a.u.).
“GTGCCTTTATTATGTCTTCTCATTTACCATGAACACTTTGCGGAGTCACCTAGTGCAG”: the binding signal is 10200 fluorescence intensity (a.u.).
For the sequence “GCCGCCTGCTATTGCTCCAATCCCTGATGCAGTTCCCACGCGGAGTCACCTAGTGCAG”, the binding signal is 8760 fluorescence intensity (a.u.).
The value for “GCGGCGGCCTCCTTCTCCACCACCTTCGTGTTCGCCATCGCGGAGTCACCTAGTGCAG” was 8610 fluorescence intensity (a.u.); that for “ACCAGCTAATCATGCCCACCCTAGCCTAGACTCCGTTGCTCGGAGTCACCTAGTGCAG” was 10600 fluorescence intensity (a.u.).
Turning to “CGTGCGTAAGGGCTGGTTTAGATGGCAAAATTTTTTATTTCGGAGTCACCTAGTGCAG”, the binding signal is 10500 fluorescence intensity (a.u.).
For “TTCCTCTCGGGGTTGGCCTCCCGCCGCCAGGTCTCCTCCTCGGAGTCACCTAGTGCAG”, the binding signal was 8210 fluorescence intensity (a.u.).
The value for “CGGCGGCGTCCGAGTGTGTGTGTGTATGTAATGGACGCCGCGGAGTCACCTAGTGCAG” was 8640 fluorescence intensity (a.u.); that for “GCATCCGTGCCATTTCATCCCTATTTAATCGTCACATCACCGGAGTCACCTAGTGCAG” was 10600 fluorescence intensity (a.u.).
“CCCCACCACCGATCTCCGCCGTCCGTCGCCGCCCTCGCCGCGGAGTCACCTAGTGCAG”: the binding signal is 9020 fluorescence intensity (a.u.).
With “CCCCATTACATCCCACCTTATTCTTGCAACCAAACACTACCGGAGTCACCTAGTGCAG”, the binding signal is 8260 fluorescence intensity (a.u.).
Regarding “CGCTGGACGTACGCCACATTGCGCCCATCTCTCTCGCTCTCGGAGTCACCTAGTGCAG”, the binding signal is 8290 fluorescence intensity (a.u.).
As to “CGCTCACCTCATTCTCTCGCCGCCACCACTCGCCTCCGTCCGGAGTCACCTAGTGCAG”, the binding signal is 10800 fluorescence intensity (a.u.).
Next, “TTTTGGTCCATGTTTGCTGCACTGATTTGGTGGACAACTCCGGAGTCACCTAGTGCAG”: 8960 fluorescence intensity (a.u.); “ATGGTGTACCCTGTTCTTTCTACTTGGTTACGTCAATTTCCGGAGTCACCTAGTGCAG”: 8650 fluorescence intensity (a.u.).
With “TTTTCTTTTCTTTTCTTTTTTGCATGTTTGGGCGGCGGCGCGGAGTCACCTAGTGCAG”, the binding signal was 8330 fluorescence intensity (a.u.).
The value for “GAAAGCCGCCGCCGCCGCCGCCCTTCTACTTCCGCCGCCTCGGAGTCACCTAGTGCAG” was 8270 fluorescence intensity (a.u.); that for “CATGATGACACGCGTTTTCTTTTTGTTCATGTCTCCTCGACGGAGTCACCTAGTGCAG” was 12500 fluorescence intensity (a.u.).
“TTAATCCCATTTGTATTTTTTCTCAAACTTTGTGGACTGTCGGAGTCACCTAGTGCAG”: the binding signal was 8130 fluorescence intensity (a.u.).
With “AGGCTATGAGAGCGAACGTGGAGGCTCTTTTTTCTATTTCCGGAGTCACCTAGTGCAG”, the binding signal was 8340 fluorescence intensity (a.u.).
Consider “CACAGTGCCTTATTTCAAAATGAAACTATTTCTTCACATACGGAGTCACCTAGTGCAG”, for which the binding signal is 8020 fluorescence intensity (a.u.).
Next, “GTCGCCTCGTCTTGCCTCGCCTCGTCCAAGGTCAACGAGACGGAGTCACCTAGTGCAG”: 8740 fluorescence intensity (a.u.); “TTAATGTGTTACGTTCGATTGATCCATCCAACCTACTTGCCGGAGTCACCTAGTGCAG”: 8210 fluorescence intensity (a.u.); “CCATATGATCCGTTACCATATGTAACATGTGGTCACCTCACGGAGTCACCTAGTGCAG”: 8650 fluorescence intensity (a.u.).
Consider “CCGCGACCACACACAGAACCCGCTCGGAAACACAAACATCCGGAGTCACCTAGTGCAG”, for which the binding signal is 8940 fluorescence intensity (a.u.).
Regarding “TCCGTCCGTCCTAGTCCAGTCAAACTTCTTACTCTTCCAACGGAGTCACCTAGTGCAG”, the binding signal is 10200 fluorescence intensity (a.u.).
Next, “TCAATTTTTCCGTCACATCATTCCAATCTCTTCAATTTTCCGGAGTCACCTAGTGCAG”: 9420 fluorescence intensity (a.u.); “CTCTCTCTCTATCACTCTGCTCAGCTCAAGTAGCCAGCTCCGGAGTCACCTAGTGCAG”: 8040 fluorescence intensity (a.u.); “GGCGTATGTTGGCTTGTATATTGATCTTGTGTCTTGATCTCGGAGTCACCTAGTGCAG”: 8950 fluorescence intensity (a.u.).
On to “CAATCTATTGTGTGTTCATACCTTGTTATACCTAATTTTACGGAGTCACCTAGTGCAG”, for which the binding signal was 9170 fluorescence intensity (a.u.).
As to “GGGATCCCCTCCTTGTCCTGGATCTTCGCCTTCACGTTGTCGGAGTCACCTAGTGCAG”, the binding signal was 8340 fluorescence intensity (a.u.).
On to “AATCCATGGCTCCACACAATCTCTCCACCAACTCATTTCGCGGAGTCACCTAGTGCAG”, for which the binding signal is 10100 fluorescence intensity (a.u.).
The value for “GATTCCTTGTTTTTCTTAGCTTTTTCAGCTGAGGCTCTCGCGGAGTCACCTAGTGCAG” was 11300 fluorescence intensity (a.u.); that for “ACAGCCTATATACACTACTCACTCCGTCTCAGAATATAAGCGGAGTCACCTAGTGCAG” was 8900 fluorescence intensity (a.u.); that for “ACCTTCCAATCCTATCAGATCATCGAACTCCTTAACCGAACGGAGTCACCTAGTGCAG” was 8370 fluorescence intensity (a.u.).
In the case of “ACGAAAACCCCAAATTACCCTCGCACACCTCGGCTTGTTTCGGAGTCACCTAGTGCAG”, the binding signal is 10000 fluorescence intensity (a.u.).
The value for “CAAGCTACCACCACCATCTTCTCCTTCTTCTTCCTCTCCTCGGAGTCACCTAGTGCAG” was 8570 fluorescence intensity (a.u.).
